Drawing on publication PMC7978294, this text covers binding for one molecule.

No constants are given. Whether binding was seen depends on the method and setting. Binding seen in cells or lysates may run through a third protein.

This test concerns the target IL-4Rα-ΔIC-Flag (intracellular domain-depleted mIL-4Rα fused with Flag) (mouse). The experiment in a line: co-IP; IP: Flag; IL-4Rα-KO BMDMs stably expressing IL-4Rα-WT-Flag or IL-4Rα-ΔIC-Flag, treated with IL-4 (100 ng/mL).

B1: APPL1 (adaptor containing a pleckstrin homology (PH) domain, phosphotyrosine-binding (PTB) domain, and leucine zipper motif 1), endogenous mouse (protein, UniProt Q8K3H0 1-707)
chain: MPGIDKLPIEETLEDSPQTRSLLGVFEEDATAISNYMNQLYQAMHRIYDAQNELSAATHLTSKLLKEYEKQRFPLGGDDEVMSSTLQQFSKVIDELSSCHAVLSTQLADAMMFPISQFKERDLKEILTLKEVFQIASNDHDAAINRYSRLSKKRENDKVKYEVTEDVYTSRKKQHQTMMHYFCALNTLQYKKKIALLEPLLGYMQAQISFFKMGSENLNGQLEEFLANIGTSVQNVRREMDGDVETMQQTIEDLEVASDPLYLPDPDPTKFPINRNLTRKAGYLNARNKTGLVSSTWDRQFYFTQGGNLMSQARGDVAGGLAMDIDNCSVMAVDCEDRRYCFQITSFDGKKSSILQAESKKDHEEWICTINNISKQIYLSENPEETAARVNQSALEAVTPSPSFQQRHESLRPGGQSRPPTARTSSSGSLGSESTNLAALSLDSLVAPDTPIQFDIISPVCEDQPGQAKAFGQGGRRTNPFGESGGSTKSETEDSILHQLFIVRFLGSMEVKSDDHPDVVYETMRQILAARAIHNIFRMTESHLLVTCDCLKLIDPQTQVTRLTFPLPCVVLYATHQENKRLFGFVLRTSGGRSESNLSSVCYIFESNNEGEKICDSVGLAKQIALHAELDRRASEKQKEIERVKEKQQKELSKQKQIEKDLEEQSRLIAASSRPNQAGSEGQLVLSSSQSEESDLGEEGKKRESEA
As to B1, the binding entry is given as “no binding”.
